Measurements taken from the supplement of paper PMC10849652.
The list shows a part of the results.

The chains behind the UniProt entries cited, without tags or fusion partners. Where a name states a change or a piece, a line headed by the entry shows the natural chain unless it says otherwise.
UniProt Q9NS00: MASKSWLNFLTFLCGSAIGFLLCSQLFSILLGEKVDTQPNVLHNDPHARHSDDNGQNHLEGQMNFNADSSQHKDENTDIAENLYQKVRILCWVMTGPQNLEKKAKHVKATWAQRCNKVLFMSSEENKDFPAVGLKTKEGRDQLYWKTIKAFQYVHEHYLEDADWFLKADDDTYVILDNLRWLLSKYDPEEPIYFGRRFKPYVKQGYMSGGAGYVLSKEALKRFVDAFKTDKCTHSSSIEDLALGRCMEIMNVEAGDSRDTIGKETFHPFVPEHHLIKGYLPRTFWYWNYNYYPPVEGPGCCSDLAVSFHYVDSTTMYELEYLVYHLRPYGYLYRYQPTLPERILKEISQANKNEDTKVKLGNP
UniProt Q86YS7: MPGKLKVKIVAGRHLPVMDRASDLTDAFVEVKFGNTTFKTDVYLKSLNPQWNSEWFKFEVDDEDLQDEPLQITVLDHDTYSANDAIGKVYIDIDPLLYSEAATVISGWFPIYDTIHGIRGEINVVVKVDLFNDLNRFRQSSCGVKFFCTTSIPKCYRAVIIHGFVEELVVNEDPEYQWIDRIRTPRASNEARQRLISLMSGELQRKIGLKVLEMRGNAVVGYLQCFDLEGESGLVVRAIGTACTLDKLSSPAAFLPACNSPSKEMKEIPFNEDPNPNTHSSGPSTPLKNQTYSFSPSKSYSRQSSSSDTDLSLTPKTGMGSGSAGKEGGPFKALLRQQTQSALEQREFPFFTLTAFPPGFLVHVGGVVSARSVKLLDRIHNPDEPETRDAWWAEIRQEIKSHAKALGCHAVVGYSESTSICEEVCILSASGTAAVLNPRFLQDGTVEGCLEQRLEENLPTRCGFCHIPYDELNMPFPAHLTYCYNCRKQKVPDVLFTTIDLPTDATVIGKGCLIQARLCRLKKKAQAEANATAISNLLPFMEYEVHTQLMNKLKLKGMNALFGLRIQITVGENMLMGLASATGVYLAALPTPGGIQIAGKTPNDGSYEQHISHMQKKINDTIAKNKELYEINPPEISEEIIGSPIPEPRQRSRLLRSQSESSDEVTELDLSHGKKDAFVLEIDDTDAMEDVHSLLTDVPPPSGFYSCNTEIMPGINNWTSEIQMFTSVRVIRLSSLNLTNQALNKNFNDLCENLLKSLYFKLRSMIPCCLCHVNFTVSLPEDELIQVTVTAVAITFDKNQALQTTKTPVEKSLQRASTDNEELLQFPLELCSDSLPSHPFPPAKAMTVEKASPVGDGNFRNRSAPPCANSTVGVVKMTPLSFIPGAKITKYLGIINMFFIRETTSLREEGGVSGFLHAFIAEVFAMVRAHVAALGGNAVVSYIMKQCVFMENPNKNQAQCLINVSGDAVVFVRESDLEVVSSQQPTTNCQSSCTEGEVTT
UniProt Q13137: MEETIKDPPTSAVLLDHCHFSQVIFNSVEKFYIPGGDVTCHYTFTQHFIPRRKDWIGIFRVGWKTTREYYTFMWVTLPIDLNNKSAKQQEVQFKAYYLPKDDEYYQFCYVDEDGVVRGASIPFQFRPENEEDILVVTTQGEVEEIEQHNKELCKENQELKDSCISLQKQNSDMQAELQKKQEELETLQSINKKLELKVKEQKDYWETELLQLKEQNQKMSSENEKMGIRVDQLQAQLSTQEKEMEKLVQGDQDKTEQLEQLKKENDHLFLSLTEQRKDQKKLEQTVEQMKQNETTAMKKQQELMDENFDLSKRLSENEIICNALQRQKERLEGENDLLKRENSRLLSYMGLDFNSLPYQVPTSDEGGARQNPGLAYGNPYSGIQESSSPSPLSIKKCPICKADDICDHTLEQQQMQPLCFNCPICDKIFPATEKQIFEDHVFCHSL
UniProt Q6P1S2: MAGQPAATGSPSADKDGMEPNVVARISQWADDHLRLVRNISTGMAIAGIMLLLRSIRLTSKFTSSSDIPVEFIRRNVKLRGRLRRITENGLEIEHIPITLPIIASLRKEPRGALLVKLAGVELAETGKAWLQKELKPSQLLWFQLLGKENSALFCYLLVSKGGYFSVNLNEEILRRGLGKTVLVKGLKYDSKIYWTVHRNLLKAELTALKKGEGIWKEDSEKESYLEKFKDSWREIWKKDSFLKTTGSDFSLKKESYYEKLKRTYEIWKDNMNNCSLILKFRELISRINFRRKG
UniProt Q99622: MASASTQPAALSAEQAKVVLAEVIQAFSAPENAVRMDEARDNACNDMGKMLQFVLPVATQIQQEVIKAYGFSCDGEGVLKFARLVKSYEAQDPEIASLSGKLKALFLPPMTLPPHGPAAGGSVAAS
UniProt P01024, whole entry, looked up: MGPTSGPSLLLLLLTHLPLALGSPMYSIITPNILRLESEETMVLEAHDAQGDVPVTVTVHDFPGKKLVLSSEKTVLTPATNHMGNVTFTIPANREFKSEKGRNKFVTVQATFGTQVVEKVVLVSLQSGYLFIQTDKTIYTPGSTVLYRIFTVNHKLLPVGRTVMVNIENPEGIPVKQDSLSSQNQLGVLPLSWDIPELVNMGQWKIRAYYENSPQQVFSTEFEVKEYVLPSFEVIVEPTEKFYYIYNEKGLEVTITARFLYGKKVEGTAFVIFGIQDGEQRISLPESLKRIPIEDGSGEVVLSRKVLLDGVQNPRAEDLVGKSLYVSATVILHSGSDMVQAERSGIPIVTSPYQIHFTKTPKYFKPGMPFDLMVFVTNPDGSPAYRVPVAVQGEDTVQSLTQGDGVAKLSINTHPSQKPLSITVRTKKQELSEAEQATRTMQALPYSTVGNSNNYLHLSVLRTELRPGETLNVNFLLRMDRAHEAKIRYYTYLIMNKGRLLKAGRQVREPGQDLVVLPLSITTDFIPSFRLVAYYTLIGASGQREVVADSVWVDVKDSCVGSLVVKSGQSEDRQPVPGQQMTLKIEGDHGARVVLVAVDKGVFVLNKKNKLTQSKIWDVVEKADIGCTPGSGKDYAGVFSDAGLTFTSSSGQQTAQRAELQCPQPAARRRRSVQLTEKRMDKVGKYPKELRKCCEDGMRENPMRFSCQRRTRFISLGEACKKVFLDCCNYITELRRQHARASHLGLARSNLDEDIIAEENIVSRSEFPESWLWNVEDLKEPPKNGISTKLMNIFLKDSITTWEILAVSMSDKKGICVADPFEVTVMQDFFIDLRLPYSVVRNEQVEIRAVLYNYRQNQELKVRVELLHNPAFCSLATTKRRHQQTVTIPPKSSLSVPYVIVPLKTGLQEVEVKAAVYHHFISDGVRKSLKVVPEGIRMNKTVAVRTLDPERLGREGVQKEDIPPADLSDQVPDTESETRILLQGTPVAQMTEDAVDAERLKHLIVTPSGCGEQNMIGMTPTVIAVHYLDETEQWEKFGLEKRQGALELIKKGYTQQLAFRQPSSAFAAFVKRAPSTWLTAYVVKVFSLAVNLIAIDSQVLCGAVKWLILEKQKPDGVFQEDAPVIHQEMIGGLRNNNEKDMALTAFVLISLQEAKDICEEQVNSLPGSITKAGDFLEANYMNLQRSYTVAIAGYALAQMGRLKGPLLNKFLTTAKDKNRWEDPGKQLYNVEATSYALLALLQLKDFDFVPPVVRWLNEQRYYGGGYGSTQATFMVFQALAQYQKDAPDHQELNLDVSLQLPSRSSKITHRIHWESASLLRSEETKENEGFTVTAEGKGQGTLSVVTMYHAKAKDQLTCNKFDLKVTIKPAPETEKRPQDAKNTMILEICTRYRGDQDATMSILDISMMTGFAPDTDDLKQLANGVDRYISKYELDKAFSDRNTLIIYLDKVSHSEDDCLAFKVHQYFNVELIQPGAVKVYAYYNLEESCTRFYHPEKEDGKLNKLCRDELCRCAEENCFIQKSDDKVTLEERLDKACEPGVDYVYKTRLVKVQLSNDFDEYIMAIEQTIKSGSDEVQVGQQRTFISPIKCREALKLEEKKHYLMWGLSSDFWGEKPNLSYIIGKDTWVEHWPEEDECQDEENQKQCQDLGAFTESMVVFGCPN
UniProt Q5T5Y3: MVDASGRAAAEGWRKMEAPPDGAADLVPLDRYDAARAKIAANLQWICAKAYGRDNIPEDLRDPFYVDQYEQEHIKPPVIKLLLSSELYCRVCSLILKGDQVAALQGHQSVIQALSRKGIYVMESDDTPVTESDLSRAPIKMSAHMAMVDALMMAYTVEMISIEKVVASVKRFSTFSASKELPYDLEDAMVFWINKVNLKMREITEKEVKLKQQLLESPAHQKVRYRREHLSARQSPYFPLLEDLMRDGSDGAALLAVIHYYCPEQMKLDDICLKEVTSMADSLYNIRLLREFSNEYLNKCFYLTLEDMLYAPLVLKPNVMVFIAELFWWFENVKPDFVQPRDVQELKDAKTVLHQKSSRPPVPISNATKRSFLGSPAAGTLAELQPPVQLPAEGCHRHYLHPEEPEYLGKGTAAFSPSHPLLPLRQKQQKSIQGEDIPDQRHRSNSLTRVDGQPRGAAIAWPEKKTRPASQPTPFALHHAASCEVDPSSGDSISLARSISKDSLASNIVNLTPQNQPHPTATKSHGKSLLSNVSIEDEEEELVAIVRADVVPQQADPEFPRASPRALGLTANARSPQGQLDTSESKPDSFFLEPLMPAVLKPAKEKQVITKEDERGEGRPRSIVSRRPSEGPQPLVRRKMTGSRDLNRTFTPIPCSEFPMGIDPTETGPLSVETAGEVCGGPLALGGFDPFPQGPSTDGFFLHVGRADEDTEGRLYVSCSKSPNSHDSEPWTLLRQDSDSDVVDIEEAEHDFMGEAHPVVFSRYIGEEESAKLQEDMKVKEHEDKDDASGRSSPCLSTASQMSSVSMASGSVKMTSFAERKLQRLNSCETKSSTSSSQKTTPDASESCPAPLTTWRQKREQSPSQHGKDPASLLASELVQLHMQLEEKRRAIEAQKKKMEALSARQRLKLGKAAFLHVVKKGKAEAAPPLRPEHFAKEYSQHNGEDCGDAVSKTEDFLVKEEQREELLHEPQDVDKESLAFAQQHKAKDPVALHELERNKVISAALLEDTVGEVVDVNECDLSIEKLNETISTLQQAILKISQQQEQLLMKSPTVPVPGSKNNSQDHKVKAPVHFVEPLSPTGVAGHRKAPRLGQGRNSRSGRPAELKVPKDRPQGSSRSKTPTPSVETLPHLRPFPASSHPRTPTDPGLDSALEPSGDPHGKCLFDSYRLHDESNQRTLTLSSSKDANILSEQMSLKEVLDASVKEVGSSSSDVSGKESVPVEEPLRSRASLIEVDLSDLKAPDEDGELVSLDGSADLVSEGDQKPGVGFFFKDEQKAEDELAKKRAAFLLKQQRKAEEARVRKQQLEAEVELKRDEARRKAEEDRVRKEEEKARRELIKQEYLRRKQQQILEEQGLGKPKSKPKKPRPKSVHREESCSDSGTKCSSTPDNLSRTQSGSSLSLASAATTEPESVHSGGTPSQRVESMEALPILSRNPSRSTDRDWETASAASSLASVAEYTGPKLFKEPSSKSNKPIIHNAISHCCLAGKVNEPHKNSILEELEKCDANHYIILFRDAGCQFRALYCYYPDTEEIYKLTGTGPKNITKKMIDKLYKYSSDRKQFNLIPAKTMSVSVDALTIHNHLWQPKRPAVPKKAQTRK
UniProt Q0VDD7: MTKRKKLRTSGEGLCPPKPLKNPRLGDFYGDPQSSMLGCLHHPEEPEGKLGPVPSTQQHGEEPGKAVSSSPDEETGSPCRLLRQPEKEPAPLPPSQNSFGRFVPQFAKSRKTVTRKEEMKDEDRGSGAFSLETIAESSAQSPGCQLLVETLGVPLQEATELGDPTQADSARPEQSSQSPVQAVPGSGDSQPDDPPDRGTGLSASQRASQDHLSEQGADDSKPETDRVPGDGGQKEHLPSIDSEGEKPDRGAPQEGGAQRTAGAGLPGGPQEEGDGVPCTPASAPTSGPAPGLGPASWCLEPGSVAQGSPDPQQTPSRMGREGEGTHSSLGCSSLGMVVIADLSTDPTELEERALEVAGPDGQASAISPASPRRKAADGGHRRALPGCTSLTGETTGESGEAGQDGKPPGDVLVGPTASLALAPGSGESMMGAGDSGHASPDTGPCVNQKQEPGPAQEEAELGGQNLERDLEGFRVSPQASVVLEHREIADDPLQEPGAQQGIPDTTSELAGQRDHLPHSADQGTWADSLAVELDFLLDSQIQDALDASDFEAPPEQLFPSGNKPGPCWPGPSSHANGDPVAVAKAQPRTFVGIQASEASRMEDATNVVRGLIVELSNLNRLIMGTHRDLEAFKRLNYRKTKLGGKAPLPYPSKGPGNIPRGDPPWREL
UniProt Q8N8R5: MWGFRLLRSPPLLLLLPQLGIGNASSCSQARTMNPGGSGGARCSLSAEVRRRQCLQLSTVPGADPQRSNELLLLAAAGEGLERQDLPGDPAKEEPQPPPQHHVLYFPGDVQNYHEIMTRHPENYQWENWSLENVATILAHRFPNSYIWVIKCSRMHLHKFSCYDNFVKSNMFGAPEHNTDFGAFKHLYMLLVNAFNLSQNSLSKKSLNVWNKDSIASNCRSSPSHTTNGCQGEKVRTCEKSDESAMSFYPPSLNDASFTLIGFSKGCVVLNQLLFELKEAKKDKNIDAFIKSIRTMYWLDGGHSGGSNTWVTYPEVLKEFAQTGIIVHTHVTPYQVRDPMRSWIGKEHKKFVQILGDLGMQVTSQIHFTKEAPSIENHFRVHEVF

Tests used:
Test in all cases: log2 fold change, soluble protein after heating vs DMSO (PISA); higher = thermal stabilisation; K562 lysate, 10 uM; active = over 0.2 and 3.5 SD of the protein, either way, in both replicates (recomputed)
[1] = compound: NCC(=O)Nc1ccc(-n2nc(C(F)(F)F)cc2-c2ccc3c(ccc4ccccc43)c2)cc1
Summary of the method: (§1)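 Quantification was by TMTpro 16plex LC-MS/MS with equalised channel sums, applied to the supernatant after 21,000xg for 90 min. Samples were crude K562 extract at 1 mg/mL protein in PBS pH 7.4 with 1 mM MgCl2, treated with 10 μM compound for 30 min, heated for 3 min across 48°C-58°C, pooled and brought to 0.5% NP-40 at 4°C. Values are log-two fold changes in thermal stability relative to solvent controls, from duplicates.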

vorinostat = compound: O=C(CCCCCCC(=O)Nc1ccccc1)NO [vorinostat]
Summary of the method: as §1

silmitasertib = compound: O=C(O)c1ccc2c(c1)nc(Nc1cccc(Cl)c1)c1ccncc12 [silmitasertib]
Summary of the method: as §1

[2] = compound: O=C1NC(=O)C(c2cnc3ccccn23)=C1c1cn2c3c(cc(F)cc13)CN(C(=O)N1CCCCC1)CC2
Summary of the method: as §1

entospletinib = compound: c1cn2cc(-c3ccc4cn[nH]c4c3)nc(Nc3ccc(N4CCOCC4)cc3)c2n1 [entospletinib]
Summary of the method: as §1

Measured: log2 fold change

C1GALT1 (UniProt Q9NS00)
inactive: [1] 0.017 | vorinostat 0.156 | silmitasertib -0.057 | [2] -0.034

C2CD5 isoform 3 (UniProt Q86YS7)
inactive: [1] 0.01 | vorinostat 0.086 | silmitasertib -0.059 | [2] 0.049 | entospletinib 0.009

CALCOCO2 isoform 4 (UniProt Q13137)
inactive: [1] 0.019 | vorinostat -0.058 | silmitasertib 0.014 | [2] 0.013 | entospletinib -0.023

C3orf33 (UniProt Q6P1S2)
inactive: [1] -0.085 | vorinostat -0.118 | silmitasertib -0.137 | [2] 0.023

C12orf57 (UniProt Q99622)
inactive: [1] -0.219 | vorinostat 0.174 | silmitasertib 0.059 | [2] -0.105

BUD23 isoform 3 (UniProt O43709)
inactive: [1] 0.007 | vorinostat 0.014 | silmitasertib -0.07 | [2] -0.021 | entospletinib 0.055

C3 (UniProt P01024)
inactive: [1] 0.024 | vorinostat -0.098 | silmitasertib 0.008 | [2] 0.062 | entospletinib -0.036

CAMSAP1 isoform 3 (UniProt Q5T5Y3)
inactive: [1] 0.037 | vorinostat -0.029 | silmitasertib -0.01 | [2] -0.031 | entospletinib -0.027

C19orf57 (UniProt Q0VDD7)
inactive: [1] 0.237

2 neighbouring records already listed, for reference:
CAMSAP1 isoform 3 (UniProt Q5T5Y3)
inactive: [1] 0.037 | vorinostat -0.029 | silmitasertib -0.01 | [2] -0.031 | entospletinib -0.027

C19orf57 (UniProt Q0VDD7)
inactive: [1] 0.237

(list continues)

C2orf69 (UniProt Q8N8R5)
inactive: [1] -0.017 | vorinostat 0.032 | silmitasertib -0.055 | [2] -0.009 | entospletinib -0.006
